From PubChem BioAssay AID2685 (National Center for Advancing Translational Sciences (NCATS), 2010) come the findings set out here.

The structures appear in SMILES notation. Some of the results follow. The main result of the screen is listed elsewhere. These columns were measured beside it and carry no call. The list favours compounds with an active or inconclusive main result. Potencies come from curve fits of mixed quality, noted in brackets.

The assay is described as follows: qHTS Assay for Lipid Storage Modulators in Drosophila S3 Cells.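 On cell number change: cells counted by Cell Tracker Red CMTPX staining in the red channel.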 To be noted: BODIPY lipid droplet fluorescence, 18-24 h; for cell number change: measured here: cell count max response, cells fed with added oleic acid. Put shortly:
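Laser-scanning cytometry quantifies lipid droplet accumulation (500–530 nm total intensity; droplet/cell object ratio) in oleic acid-fed (400 uM added) Drosophila S3 cells treated with a concentration series. 20 uM Triacsin C defined 100% inhibition.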
(Quantitative high-throughput screening tests each substance at several concentrations.)

Where [1] appears, read: measured here: cell number channel AC50, cells fed with added oleic acid.
Where [2] appears, read: measured here: lipid fluorescence (Fed channel) AC50, cells fed with added oleic acid.

In general, AC50 refers to the concentration at which the activity in the assay is half-maximal. Read a high AC50 as weaker potency. Turning to `O=S(=O)(c1cccc(-c2csc(-c3cccnc3)n2)c1)N1CCCCC1`, the cell number change was found to be 9.22%. Besides, under setting [1], the AC50 was 0.259 µM [rising, full curve]. Besides, the AC50 under setting [2] is 0.259 µM [rising, full curve].
With `COc1ccc(C(C(=O)NC2CCCCC2)N(C(=O)CCCC(=O)Nc2ccccn2)c2ccc3c(c2)OCCO3)cc1` (configuration not stated), the cell number change amounted to 9.77%. Also, the AC50 under setting [2] is 32.6 µM [rising, single point].
On to `C/C(=C\C(=O)c1ccc(Br)cc1)NCc1ccccc1`, for which the cell number change was determined as 23.8%. For the same molecule, under setting [2], the AC50 is 0.0411 µM [rising, full curve, poor fit].
With `Cc1ccc(N(C(=O)c2ccccc2Cl)C2=NC(C)CS2)c(C)c1` (configuration not stated), the cell number change is -3.41%. Under setting [1], the concentration at half-maximal activity (AC50) was 0.82 µM [falling, single point].
With `Cc1c(C(=O)Nc2ccc(F)cc2)oc2ccc(S(=O)(=O)N3CC(C)CC(C)C3)cc12` (configuration not stated), under setting [2], the AC50 was 6.51 µM [rising, single point].
In the case of `CN(C)CCN(C(=O)c1ccc(S(=O)(=O)N(C)CC2CCCO2)cc1)c1nc2cc3c(cc2s1)OCO3` (configuration not stated), the cell number change amounted to 24.6%. Also, the AC50 under setting [2] was 3.26 µM [falling, single point].
With `CC1CCN(C(=O)c2ccc3ccccc3c2)CC1`, the cell number change was found to be 2.21%. Also, the AC50 under setting [2] was 10.3 µM [falling, partial curve].
As for `COC(=O)c1ncn(C2OC(COC(C)=O)C(OC(C)=O)C2OC(C)=O)n1` (configuration not stated), the cell number change worked out at 0.244%. In addition, the AC50 under setting [2] was 0.0146 µM [falling, full curve, poor fit].
As for `O=C(Nc1nc2ccccc2n1CCN1CCOCC1)c1ccc(COc2ccccc2Br)o1`, the cell number change worked out at 8.47%. Further, the AC50 under setting [2] is 0.116 µM [rising, full curve, poor fit].
`COC(=O)[C@@H]1C(c2c(OC)cc(OC)cc2OC)=NO[C@H]1C(=O)OC`: the cell number change was -3.37%. Further, under setting [2], the AC50 is 0.0731 µM [rising, full curve, poor fit].
For the molecule `c1ccc(Cc2nnc(N3CCOCC3)c3ccccc23)cc1`, the AC50 is, setting by setting: under setting [1], 0.731 µM [rising, full curve]; under setting [2], 0.58 µM [rising, single point].
Take `CCc1ccc(CN2CCC(n3nccc3NC(=O)c3ccc4c(c3)OCO4)CC2)cc1`: the cell number change is 25.7%. In addition, under setting [2], the AC50 is 0.58 µM [rising, single point].
Regarding `Cc1ccccc1S(=O)(=O)Cc1ccc(C(=O)N(C)C2CCCCC2)o1`, under setting [2], the AC50 was 11.6 µM [falling, partial curve, poor fit].
With `CCCSc1nc(C)cc(C)c1S(C)(=O)=O`, the cell number change was 13.5%.
With `CCOc1ccc(-c2n[nH]c(=S)o2)cc1`, the cell number change worked out at 60.6%. For the same molecule, the AC50 under setting [1] was 0.146 µM [rising, full curve, poor fit]. The AC50 under setting [2] was 0.116 µM [rising, full curve, poor fit].
On to `CN(c1ccccc1)S(=O)(=O)c1cccc(C(=O)NNC(=O)c2ccncc2)c1`, for which the AC50 runs as follows: under setting [1], 1.64 µM [rising, partial curve, poor fit]; under setting [2], 1.3 µM [rising, partial curve].
Consider `CCSc1nnc(NC(=O)C(CC)Oc2ccccc2)s1` (configuration not stated), for which the cell number change was -9.82%.
For the molecule `Cn1c(CNC(=O)c2ccco2)nnc1SCC(=O)Nc1ccc(Cl)cc1`, the cell number change amounted to 68.3%. Also, under setting [1], the AC50 was 20.6 µM [rising, partial curve].
On to `CC(C)CCN(C(=S)Nc1cccc(F)c1)C1CCN(C(C)C)CC1`, for which the cell number change is -10.1%. The AC50 under setting [1] is 3.26 µM [falling, partial curve]. Also, the AC50 under setting [2] is 6.51 µM [falling, single point].
Take `O=C(NCc1ccco1)NC12CC3CC(CC(C3)C1)C2`: the cell number change was 14.1%. Besides, under setting [2], the AC50 was 29.1 µM [rising, single point].
As for `CCn1nc(C)cc1C(=O)N(C)C1CCCN(Cc2ccccc2F)C1` (configuration not stated), the cell number change was 13.8%. Further, the AC50 under setting [1] is 6.51 µM [rising, single point]. Besides, the AC50 under setting [2] was 2.06 µM [rising, partial curve, poor fit].
`COc1cccc(C2C(C#N)=C(N)Oc3cc(C)n(Cc4ccco4)c(=O)c32)c1` (configuration not stated): the cell number change was 0.628%. Besides, under setting [2], the AC50 was 11.6 µM [rising, single point].
As to `COc1ccc(NC(=O)CN(C)C(=O)c2oc3ccccc3c2C)cc1`, the cell number change came to 4.21%.
As to `CCCCC1=CC2=C(c3ccco3)C(=O)C(C)(OC(=O)c3ccc(OC)cc3)C(=O)C2=CN1Cc1ccc(OC)cc1` (configuration not stated), the cell number change was -2.27%. Under setting [2], the AC50 is 32.6 µM [falling, single point].
For `CCN1CCN(Cc2nc3c(c(=O)n(C)c(=O)n3C)n2CC(=O)c2ccccc2)CC1`, the cell number change was 0.237%. In addition, under setting [2], the AC50 is 20.6 µM [falling, partial curve].
Regarding `O=C(Nc1sc2c(c1C(=O)O)CCCC2)c1ccc(F)cc1`, the cell number change amounted to 18.6%.
For `Cc1nc(NN)nc(NCc2ccccc2)n1`, the cell number change was found to be 22.1%. Further, the AC50 under setting [2] is 0.58 µM [falling, single point].
With `O=C(Oc1ccccc1F)c1ccc2c(=O)n3c(nc2c1)CCC3`, the cell number change came to 22.5%.
With `CCOC(=O)N1CCN(CC(=O)Nc2nc3ccccc3s2)CC1`, the cell number change was 10.6%. The AC50 under setting [2] is 6.51 µM [falling, single point].
As to `O=S(=O)(NCC1CCCO1)c1cccc2nsnc12` (configuration not stated), the cell number change turned out to be 3.95%. Besides, the AC50 under setting [2] is 23.1 µM [falling, partial curve, poor fit].
As to `Cc1ccc(S(=O)(=O)N2CCCC2)cc1C(=O)N1CCN(Cc2ccccc2)CC1`, the cell number change was determined as 3.97%.
For `Cc1ccc(Nc2nc3c(c(=O)[nH]c(=O)n3C)n2Cc2ccc(F)cc2)cc1`, the cell number change was -51.9%. For the same molecule, under setting [1], the AC50 was 7.31 µM [falling, partial curve]. Under setting [2], the AC50 is 6.51 µM [falling, partial curve].
As to `N#Cc1nc(-c2cccs2)oc1NCC1CCCO1` (configuration not stated), the cell number change was 51.3%. The AC50 under setting [2] is 18.4 µM [falling, partial curve].
As for `O=C(CCl)Nc1cc2[nH]c(=O)[nH]c2cc1Br`, the cell number change is -1.49%.
With `COc1ccc(OCCCC(=O)OC(C)C(=O)Nc2ccc(S(N)(=O)=O)cc2)cc1` (configuration not stated), the cell number change is -20.2%. Further, under setting [2], the AC50 was 18.4 µM [falling, single point].
As for `NC1=NC2(CCCC2)N=C(Nc2ccccc2)N1`, the cell number change is 11.9%. In addition, the concentration at half-maximal activity (AC50) under setting [2] is 16.4 µM [rising, partial curve].
Take `O=[N+]([O-])/C(C(Cl)=C(Cl)Cl)=C(\Sc1ccccc1)N1CCCCC1`: the cell number change was -7.57%. Moreover, the AC50 under setting [2] was 3.66 µM [falling, partial curve, poor fit].
In the case of `O=C(CCc1nc2ccccc2c(=O)[nH]1)N1CCN(S(=O)(=O)c2cccc(F)c2)CC1`, the cell number change was -13.8%. The AC50 under setting [2] is 6.51 µM [falling, single point].
Take `COCCCn1cnnc1SCC(=O)Nc1ccc(S(=O)(=O)N2CCCC2)cc1`: the cell number change amounted to 1.39%.
In the case of `Cc1c(OCC(=O)N[C@@H](Cc2c[nH]c3ccccc23)C(=O)O)ccc2c1oc(=O)c1ccccc12`, the cell number change is -14.6%. In addition, the AC50 under setting [2] is 0.092 µM [falling, full curve, poor fit].
For `CCOc1ccc(OCC)c(NC(=O)C(NS(=O)(=O)c2ccc3c(c2)oc(=O)n3C)C(C)C)c1` (configuration not stated), the cell number change was 30.7%. Under setting [1], the AC50 was 5.8 µM [rising, partial curve].
Consider `Cc1ccccc1OC(C)C(=O)Nc1ccc(S(=O)(=O)Nc2nccs2)cc1` (configuration not stated), for which the cell number change turned out to be 1.26%. In addition, under setting [2], the AC50 is 0.00517 µM [rising, full curve, poor fit].
Consider `CC(=O)N1CCCC(C(=O)c2ccc(Oc3ccccc3)cc2)C1` (configuration not stated), for which the cell number change is -28.6%. Besides, the AC50 under setting [2] is 20.6 µM [falling, single point].
For the molecule `C=CCn1c(C)cc(C(=O)CSc2ccc(NC(C)=O)cc2)c1C`, the cell number change is -22.5%. Besides, the AC50 under setting [2] was 18.4 µM [falling, single point].
With `CCn1c(=O)n(CCc2ccccc2)c(=O)c2c3c(sc21)CCCC3`, the cell number change worked out at 90.9%. Moreover, the AC50 under setting [1] was 2.59 µM [rising, full curve]. Also, the AC50 under setting [2] is 2.91 µM [rising, full curve].
In the case of `CCC(=O)NC(=S)Nc1cccc(NC(=O)c2ccccc2C)c1`, the cell number change was determined as 20.6%. Moreover, the AC50 under setting [2] was 4.11 µM [rising, single point].
For `Clc1cccc(Cl)c1Cn1ccc(C2CC2)n1`, the cell number change was -0.652%. Moreover, the AC50 under setting [2] was 4.61 µM [rising, single point].
As for `CC(C)(C)NC(=O)CN(C(=O)CCN1CCCc2ccccc21)C(C)(C)C`, the AC50 under setting [2] is 25.9 µM [falling, partial curve].
Consider `Cc1cc(C(=O)C(C)OC(=O)c2ccc(NC(=O)CC#N)cc2)c(C)n1-c1ccc(OC(F)F)cc1` (configuration not stated), for which the cell number change was -3.89%. Under setting [2], the AC50 is 16.4 µM [falling, partial curve].
Consider `Cc1ccc(CNC(=O)CN(C)S(=O)(=O)c2ccc3c(c2)n(C)c(=O)c(=O)n3C)cc1`, for which the cell number change amounted to 24.5%. Further, under setting [2], the AC50 was 29.1 µM [rising, single point].
As to `O=C(CN(C(=O)CSc1nnc(COc2ccccc2)o1)c1ccc(F)cc1)NC1CCCCC1`, the AC50 is 4.11 µM [rising, single point] under setting [1] and 6.51 µM [rising, single point] under setting [2].
Turning to `CCN1CCN(C(c2cccs2)C(C)NC(=O)C(=O)N2CCCCC2)CC1` (configuration not stated), the cell number change was found to be 20.3%. Also, the AC50 under setting [2] is 29.1 µM [rising, partial curve].
With `Clc1cccc(Cl)c1CSc1nnc(/C=C/c2ccccc2)o1`, the cell number change was determined as 154%. Further, the half-maximal activity concentration (AC50) under setting [1] was 0.058 µM [falling, full curve, poor fit].
Take `Cc1ccc(OCC(=O)Nc2ccc(S(=O)(=O)Nc3ccccn3)cc2)cc1C`: the cell number change was 87.7%.
In the case of `Fc1cccc2sc(N3CCCCC3)nc12`, the AC50 under setting [2] was 0.651 µM [falling, single point].
With `O=C(NNC(=O)c1c(F)cccc1F)c1sccc1-n1cccc1`, the cell number change is -22.7%.
`CCc1ccc(C2C(C#N)=C(N)C(C#N)(C#N)C3=CCC(C(C)(C)C)CC32)cc1` (configuration not stated): the cell number change was -77.7%. For the same molecule, the AC50 under setting [1] is 18.4 µM [falling, partial curve]. Besides, the AC50 under setting [2] was 20.6 µM [falling, partial curve].
`CCOC(=O)c1[nH]c(C)c(C(=O)OCC(=O)NCc2ccc(OC)c(OC)c2)c1C`: the cell number change is -41.3%. Moreover, under setting [1], the AC50 was 16.4 µM [falling, partial curve]. Besides, under setting [2], the AC50 was 0.411 µM [falling, full curve].
Regarding `Cc1cccc(C(=O)NNC(=O)c2n[nH]c(=O)c3ccccc23)c1C`, the cell number change was 43%. Under setting [2], the AC50 is 2.91 µM [falling, single point].
